Source: paper PMC4234316

Chains of the proteins cited; added tags and fusions are not shown. Residues count along the entry.
UniProt P53566, whole entry: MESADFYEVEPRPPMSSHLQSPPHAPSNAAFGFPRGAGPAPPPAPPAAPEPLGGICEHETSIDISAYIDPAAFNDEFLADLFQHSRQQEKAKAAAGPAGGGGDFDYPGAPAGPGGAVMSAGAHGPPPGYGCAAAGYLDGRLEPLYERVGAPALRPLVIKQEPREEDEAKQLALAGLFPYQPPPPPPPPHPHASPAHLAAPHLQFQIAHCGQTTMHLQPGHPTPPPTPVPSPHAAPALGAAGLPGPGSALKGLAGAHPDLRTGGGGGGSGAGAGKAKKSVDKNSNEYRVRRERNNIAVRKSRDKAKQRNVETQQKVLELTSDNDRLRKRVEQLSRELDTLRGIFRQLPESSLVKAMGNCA
UniProt P17676, 24-345: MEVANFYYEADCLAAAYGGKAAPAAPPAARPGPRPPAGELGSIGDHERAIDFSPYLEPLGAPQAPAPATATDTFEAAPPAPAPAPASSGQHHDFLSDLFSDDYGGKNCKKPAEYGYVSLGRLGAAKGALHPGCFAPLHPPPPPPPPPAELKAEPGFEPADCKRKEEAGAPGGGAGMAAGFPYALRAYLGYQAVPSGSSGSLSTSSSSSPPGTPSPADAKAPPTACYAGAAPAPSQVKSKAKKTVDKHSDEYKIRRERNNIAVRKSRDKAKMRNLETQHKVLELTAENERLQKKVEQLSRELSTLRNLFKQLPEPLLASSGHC
UniProt P49716, whole entry, stated change not applied: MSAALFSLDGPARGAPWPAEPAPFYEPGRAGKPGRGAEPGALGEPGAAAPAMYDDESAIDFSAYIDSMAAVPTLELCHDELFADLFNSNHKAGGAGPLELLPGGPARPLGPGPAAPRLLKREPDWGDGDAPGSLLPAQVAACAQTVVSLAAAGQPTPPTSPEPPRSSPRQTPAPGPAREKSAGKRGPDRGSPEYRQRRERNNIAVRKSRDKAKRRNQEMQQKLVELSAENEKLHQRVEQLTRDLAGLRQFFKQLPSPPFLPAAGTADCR

How the values were obtained:
C/EBPα (cos/α) [1] = molecular target: C/EBPα (cos/α) (UniProt P53566); test: EMSA; details: 20 mM Hepes pH 7.9, 40 mM KCl, 10% glycerol, 0.1% NP-40, 0.5 mM EDTA, 1 mM PMSF, 0.5 mM DTT, 1 µg poly(dG-dC), 1 µl FBS, 30 min room temperature; 4% native gel; protein in a lysate after overexpression; label: 32P (Klenow, [α-32P]dCTP)
C/EBPβ (cos/β) [2] = molecular target: C/EBPβ (cos/β) (UniProt P17676); test: EMSA; details: 20 mM Hepes pH 7.9, 40 mM KCl, 10% glycerol, 0.1% NP-40, 0.5 mM EDTA, 1 mM PMSF, 0.5 mM DTT, 1 µg poly(dG-dC), 1 µl FBS, 30 min room temperature; 4% native gel; protein in a lysate after overexpression; label: 32P (Klenow, [α-32P]dCTP)
C/EBPδ (cos/δ) [3] = molecular target: T1, C/EBPδ (cos/δ) (UniProt Q00322); test: EMSA; details: 20 mM Hepes pH 7.9, 40 mM KCl, 10% glycerol, 0.1% NP-40, 0.5 mM EDTA, 1 mM PMSF, 0.5 mM DTT, 1 µg poly(dG-dC), 1 µl FBS, 30 min room temperature; 4% native gel; protein in a lysate after overexpression; label: 32P (Klenow, [α-32P]dCTP)
T1 sequence (looked up, limits assumed): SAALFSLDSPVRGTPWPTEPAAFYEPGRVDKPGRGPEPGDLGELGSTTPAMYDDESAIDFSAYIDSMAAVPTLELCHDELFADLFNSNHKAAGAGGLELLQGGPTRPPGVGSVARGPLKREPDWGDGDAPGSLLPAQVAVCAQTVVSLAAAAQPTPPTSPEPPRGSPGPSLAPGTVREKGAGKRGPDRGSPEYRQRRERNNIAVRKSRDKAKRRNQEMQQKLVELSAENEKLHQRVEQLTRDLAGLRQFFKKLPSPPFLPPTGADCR

C/EBPα (cos/α) [4] = molecular target: C/EBPα (cos/α) (UniProt P53566); test: EMSA, supershift; details: 20 mM Hepes pH 7.9, 40 mM KCl, 10% glycerol, 0.1% NP-40, 0.5 mM EDTA, 1 mM PMSF, 0.5 mM DTT, 1 µg poly(dG-dC), 1 µl FBS, 30 min room temperature; 4% native gel; protein in a lysate after overexpression; label: 32P (Klenow, [α-32P]dCTP)
C/EBPβ (cos/β) [5] = molecular target: C/EBPβ (cos/β) (UniProt P17676); test: EMSA, supershift; details: 20 mM Hepes pH 7.9, 40 mM KCl, 10% glycerol, 0.1% NP-40, 0.5 mM EDTA, 1 mM PMSF, 0.5 mM DTT, 1 µg poly(dG-dC), 1 µl FBS, 30 min room temperature; 4% native gel; protein in a lysate after overexpression; label: 32P (Klenow, [α-32P]dCTP)
[6] = molecular target: C/EBPβ (endogenous) (human) (UniProt P17676); test: EMSA, supershift; details: 20 mM Hepes pH 7.9, 40 mM KCl, 10% glycerol, 0.1% NP-40, 0.5 mM EDTA, 1 mM PMSF, 0.5 mM DTT, 1 µg poly(dG-dC), 1 µl FBS, 30 min room temperature, 4% native gel, protein in an extract, label: 32P (Klenow, [α-32P]dCTP)
C/EBPδ (cos/δ) [7] = molecular target: T1, C/EBPδ (cos/δ); test: EMSA, supershift; details: 20 mM Hepes pH 7.9, 40 mM KCl, 10% glycerol, 0.1% NP-40, 0.5 mM EDTA, 1 mM PMSF, 0.5 mM DTT, 1 µg poly(dG-dC), 1 µl FBS, 30 min room temperature; 4% native gel; protein in a lysate after overexpression; label: 32P (Klenow, [α-32P]dCTP)
[8] = molecular target: C/EBPδ (endogenous) (human) (UniProt P49716); test: EMSA, supershift; details: 20 mM Hepes pH 7.9, 40 mM KCl, 10% glycerol, 0.1% NP-40, 0.5 mM EDTA, 1 mM PMSF, 0.5 mM DTT, 1 µg poly(dG-dC), 1 µl FBS, 30 min room temperature, 4% native gel, protein in an extract, label: 32P (Klenow, [α-32P]dCTP)

| Sequence | binding result (C/EBPα (cos/α) [1]) | binding result (C/EBPβ (cos/β) [2]) | binding result (C/EBPδ (cos/δ) [3]) | binding result (C/EBPα (cos/α) [4]) | binding result (C/EBPβ (cos/β) [5]) | binding result ([6]; HEK1 and SCC13 nuclear extracts) | binding result ([6]; HEK1 whole-cell vs nuclear extract) | binding result ([6]; whole-tissue lysates, normal skin and SCC) | binding result (C/EBPδ (cos/δ) [7]) | binding result ([8]; HEK1 and SCC13 nuclear extracts, minor binding) | binding result ([8]; whole-tissue lysates, normal skin and SCC, weakly positive) |
| --- | --- | --- | --- | --- | --- | --- | --- | --- | --- | --- | --- |
| CTAGCATCTGCAGAGGTATACCTCTGCAC / TCGAGTGCAGAGGTATACCTCTGCAGATG [Mutant C/EBP consensus] | no binding | no binding | no binding | – | – | – | – | – | – | – | – |
| CTAGCATCTGCAGATTGCGCAATCTGCAC / TCGAGTGCAGATTGCGCAATCTGCAGATG [C/EBP consensus] | – | – | – | binds | binds | binds | binds | binds | binds | binds more weakly | binds more weakly |

The exact form of at least one protein or probe is not confirmed. Where cells or extracts were used, other partners may take part. For some assays here: Negatives hold for the conditions tested. For some assays here: Tags and fusion partners may be left off the protein sequences shown. For some assays here: Weaker means in comparison with the reference protein, sequence or condition of that experiment.
